According to publication doi:10.1101/2024.10.04.616721:
Construct, isoform or probe ends are uncertain for at least one entry. For part of these data: At least one verdict rests on a figure or table, not on a statement of the authors.

Amino acid sequences for entries named in this document (tags omitted). Residues count along the entry.
UniProt P25490, 164-301: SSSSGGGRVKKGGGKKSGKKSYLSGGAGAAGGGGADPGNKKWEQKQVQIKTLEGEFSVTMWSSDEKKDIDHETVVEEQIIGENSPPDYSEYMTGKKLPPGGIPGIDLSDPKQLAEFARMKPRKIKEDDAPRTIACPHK
UniProt P25490, whole entry: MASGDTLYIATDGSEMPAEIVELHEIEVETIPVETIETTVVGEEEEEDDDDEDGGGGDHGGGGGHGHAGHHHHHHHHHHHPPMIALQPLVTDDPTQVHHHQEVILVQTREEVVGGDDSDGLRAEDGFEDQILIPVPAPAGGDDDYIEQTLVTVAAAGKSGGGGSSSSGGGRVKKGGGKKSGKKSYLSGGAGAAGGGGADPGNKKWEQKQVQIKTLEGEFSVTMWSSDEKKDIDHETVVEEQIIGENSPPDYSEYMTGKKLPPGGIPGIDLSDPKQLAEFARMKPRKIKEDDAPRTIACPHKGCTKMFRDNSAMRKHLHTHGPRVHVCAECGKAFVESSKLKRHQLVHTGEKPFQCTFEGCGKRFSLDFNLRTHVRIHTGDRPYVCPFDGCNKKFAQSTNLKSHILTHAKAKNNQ
UniProt P25490, 293-414: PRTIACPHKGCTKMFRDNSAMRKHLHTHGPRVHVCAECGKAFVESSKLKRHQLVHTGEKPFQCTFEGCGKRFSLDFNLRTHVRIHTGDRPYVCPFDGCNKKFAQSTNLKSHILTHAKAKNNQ

Key:
Test in all cases: fluorescence polarization
YY1 REPO-NAB = YY1 REPO-NAB (UniProt P25490); details: residues 164-301
YY1 full length = YY1 full length (UniProt P25490); details: residues 1-414
YY1 ZnF module = YY1 ZnF module (UniProt P25490); details: residues 293-414

## UUUUUUUUUUUUUUUUUUUUUUUU [24U RNA]
YY1 REPO-NAB
  binding result: binds
YY1 full length
  Kd: 1200 nM
YY1 ZnF module
  binding result: binds
